Results: PubChem BioAssay AID2685 (National Center for Advancing Translational Sciences (NCATS), 2010)
The other results are listed elsewhere or left out. Further columns of the screen follow, without active or inactive calls. Most of these compounds were active or inconclusive in the main read-out, so they are no random draw. The note in brackets gives the kind of curve behind each potency; many fits are weak.

Assay: qHTS Assay for Lipid Storage Modulators in Drosophila S3 Cells;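 for cell number change: cells counted by Cell Tracker Red CMTPX staining in the red channel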
Settings: BODIPY lipid droplet fluorescence, 18-24 h; for cell number change: measured here: cell count max response, cells fed with added oleic acid
Procedure, shortened: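 Drosophila S3 cells got compounds at several concentrations plus oleic acid (400 uM solution). Laser-scanning cytometry with 488 nm excitation read lipid droplets at 500-530 nm and cells at 575-640 nm. Percent activity was relative to 20 uM Triacsin C.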

[1] = measured here: lipid fluorescence (Fed channel) AC50, cells fed with added oleic acid
[2] = measured here: cell number channel AC50, cells fed with added oleic acid

Compound	AC50 [1]	cell number change [%]	AC50 [2]
Cc1cccc(OCC(=O)Nc2ccc3nc(C)sc3c2)c1	5.17 µM [falling, single point]		
COc1ccc(C(=O)NCCOc2ccccc2)cc1S(=O)(=O)N1CCOCC1	0.164 µM [rising, full curve, poor fit]	33.4	0.164 µM [rising, full curve, poor fit]
Cc1cc(CNC(=O)CC2C(=O)NCCN2Cc2ccccc2)nn1C (stereo not drawn)	29.1 µM [rising, single point]	10.8	
Cc1[nH]c2ccccc2c1/C=N/Nc1nc(N2CCCCC2)nc(N2CCCCC2)n1	3.26 µM [rising, full curve, poor fit]	12.4	
COc1ccc(OC)c(C(O)c2coc3ccc(O)c(CN(C)C)c23)c1 (stereo not drawn)		34.2	11.6 µM [rising, partial curve, poor fit]
CCCC(O)(c1ccc(Cl)cc1)C(CN1CCOCC1)c1ccc(Cl)cc1 (stereo not drawn)	29.1 µM [falling, single point]	-52.1	18.4 µM [falling, partial curve]
COc1cc(C(=O)Nc2ccc(S(=O)(=O)Nc3cc(C)nc(C)n3)cc2)cc(OC)c1OC	29.1 µM [falling, single point]	-3.42	
O=C(NCc1ccccc1)c1nc(-c2cccs2)no1	16.4 µM [rising, single point]	24.7	
COc1ccc(C(C(=O)NC2CCCC2)N(Cc2cccnc2)C(=O)c2snc(C(N)=O)c2N)cc1 (stereo not drawn)		22.6	
Nc1ccc(C(=O)Oc2ccc([N+](=O)[O-])cc2)cc1	0.092 µM [falling, full curve, poor fit]	-6.34	0.116 µM [falling, full curve, poor fit]
Clc1ccc2c(N/N=C/c3ccc(Br)cc3)ccnc2c1		-75	8.2 µM [falling, partial curve]
COc1cc(C(O)P(=O)(OC2CCCCC2)c2ccc(N(C)C)cc2)cc(OC)c1OC (stereo not drawn)		46.3	16.4 µM [rising, single point]
CN(C)c1ccc(C2N(c3ccc(Cl)cc3)C(=O)C3CCCN32)cc1 (stereo not drawn)		3.71	
O=C(C1CCC(=O)N(C2CCCCCC2)C1)N1CCN(c2ccccc2Cl)CC1 (stereo not drawn)	2.06 µM [falling, partial curve]	-26.3	
CCCNC(=O)c1ccc2c(=O)c(O)c(-c3ccc(C)cc3)[nH]c2c1	29.1 µM [falling, single point]	-38.5	29.1 µM [falling, single point]
CC(=O)N1CCc2cc(S(=O)(=O)CCC(=O)NCc3ccc(F)cc3)ccc21		-0.19	1.84 µM [rising, partial curve, poor fit]
CC(C)(C)OC(=O)CNC(=O)c1[nH]cnc1C(=O)N[C@@H](Cc1ccccc1)C(=O)OCc1ccccc1		5.99	
O=C(CNC(=O)c1ccncc1)N/N=C/c1ccccn1	2.31 µM [falling, partial curve]	3.13	

Complete entries, looked up by structure:
`Nc1ccc(C(=O)Oc2ccc([N+](=O)[O-])cc2)cc1` as listed: AC50 [1]: 0.092 µM [falling, full curve, poor fit]; cell number change [%]: -6.34; AC50 [2]: 0.116 µM [falling, full curve, poor fit]
`CCCNC(=O)c1ccc2c(=O)c(O)c(-c3ccc(C)cc3)[nH]c2c1` as listed: AC50 [1]: 29.1 µM [falling, single point]; cell number change [%]: -38.5; AC50 [2]: 29.1 µM [falling, single point]

Next entries follow.

Compound	AC50 [1]	cell number change [%]	AC50 [2]
Cc1ccc(OCC(=O)NCCCNC(=O)c2ccco2)cc1	6.51 µM [falling, single point]	6.52	
COc1ccc(C(=O)NCC(=O)NCC(=O)OCc2ccc(Br)cc2)cc1			2.91 µM [rising, single point]
O=C1CN(CC(=O)NC(=O)NCc2ccccc2)CCN1	23.1 µM [falling, single point]	-22.5	3.66 µM [falling, full curve, poor fit]
CN(C)CCNc1ccc(-c2n[nH]c(=O)c3ccccc23)cc1[N+](=O)[O-]		16.7	
O=C1C2C3C=CC(C3)C2C(=O)N1CC1CCCO1 (stereo not drawn)	0.517 µM [falling, full curve]	-8.5	
CCC1CCCCN1CCCNC(=O)CN1C(=O)CSc2ccc(S(=O)(=O)N3CCC(C)CC3)cc21 (stereo not drawn)	29.1 µM [rising, single point]	5.5	
Cc1c(Cc2ccc3c(c2)OCO3)sc(NC(=O)C2CC2)c1C(N)=O	0.092 µM [rising, full curve, poor fit]	26.3	0.326 µM [rising, full curve]
O=C(N/N=C/c1c(O)ccc2ccccc12)c1ccc(CO)nc1		-39.3	18.4 µM [falling, partial curve]
CCCc1nc2sc3c(SCC(=O)NCc4ccco4)ncnc3c2c2c1CCC2	29.1 µM [falling, single point]	-39.5	18.4 µM [falling, single point]
CCCC(=O)Nc1ccc(C(=O)NN2C(=O)c3ccccc3C2=O)cc1	13 µM [rising, partial curve, poor fit]	19.1	
Cc1cnc(=O)[nH]c1SCc1ccccc1F		-11.3	
CC1(c2ccccc2)NC(=O)N(CCOc2ccccc2)C1=O (stereo not drawn)	29.1 µM [rising, single point]	-9.73	
CC[C@@]12C(=O)N(c3ccccc3)C(=O)N1[C@H](c1ccc(Br)cc1)[C@@H]1C(=O)N(C(C)(C)C)C(=O)[C@@H]12	0.146 µM [falling, full curve, poor fit]	15.5	
N#Cc1c(-c2ccc(F)cc2)cc(-c2cccnc2)nc1N		117	29.1 µM [rising, single point]
Nn1cnnc1SCC(=O)N1CCc2ccccc2C1	29.1 µM [rising, single point]	31.8	29.1 µM [rising, single point]
COC(=O)c1cc(Br)c(=O)n(Cc2ccco2)c1	0.146 µM [rising, full curve, poor fit]	5.55	
Cc1ccc(C)c(S(=O)(=O)N2CCN(C(=O)[C@H](C)N3C(=O)C4CC=CCC4C3=O)CC2)c1 (stereo partly drawn)	0.103 µM [rising, full curve, poor fit]	0.122	
COc1ccc(C(=O)N/C(=C\c2cccc([N+](=O)[O-])c2)C(=O)Nc2cccc(C(=O)O)c2)cc1	0.00517 µM [falling, full curve, poor fit]	17.8	
